PubChem BioAssay AID652272 | Drosophila RNAi Screening Center | 2013

- Assay: 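Finding fly genes that regulate Hedgehog signal transduction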 (primary screen)
- Cell system: Drosophila clone 8 (Cl8) cells
- Knock-down reagent: long dsRNA against Drosophila genes
- Read-out: 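Plate reader light from a firefly reporter under a ptc promoter fragment that responds to Hedgehog, with Renilla light as transfection reference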
- Direction: firefly Hh reporter signal: higher = more ptc reporter light; Renilla reference signal: higher = more Renilla control light
- Call rule: 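Hit when the z-score averaged over two replicates is under -2 or over +3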
- Calls: active = hit: reporter lowered or raised; inactive = not a hit
In all, the deposit lists about 21,000 reagents; below is a random part of those with a known target gene and a result. Over the whole deposit, 503 (2.4%) got an active call. 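Raw plate light values, not normalised; calls rest on replicate z-scores that were not deposited; hits include reporter decreases as well as increases.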 The record does not give: the amount of reagent, the time to read-out.

gene | PubChem SID | firefly Hh reporter signal, replicate 1 | firefly Hh reporter signal, replicate 2 | firefly Hh reporter signal, replicate 3 | Renilla reference signal, replicate 1 | Renilla reference signal, replicate 2 | outcome
CG12155 (GeneID 31682) | SID104197618 | 1.07e5 | 68468 | – | 2731 | 1505 | inactive
trc (GeneID 40165) | SID104191198 | 1.45e5 | 1.62e5 | – | 4853 | 4198 | inactive
l(3)neo43 (GeneID 41851) | SID104194780 | 90500 | 1.01e5 | – | 2268 | 2436 | inactive
APP-BP1 (GeneID 39244) | SID104190712 | 60937 | 53539 | 56939 | 5082 | 4384 | inactive
CG7054 (GeneID 42643) | SID104195977 | 1.44e5 | 92186 | – | 6172 | 4340 | inactive
CG8321 (GeneID 36287) | SID104186940 | 52090 | 61649 | – | 2839 | 2374 | inactive
Acsx1L (GeneID 42351) | SID104195806 | 5.63e5 | 87911 | – | 27891 | 2790 | inactive
Muc26B (GeneID 50424) | SID104182114 | 1.27e5 | 63506 | – | 3504 | 6546 | inactive
Tmep (GeneID 38185) | SID104188007 | 82484 | 48609 | – | 4506 | 2864 | inactive
Mbs (GeneID 49070) | SID104189206 | 2.14e5 | – | – | 5328 | – | inactive
Mbs (GeneID 49070) | SID104190317 | 79069 | 74021 | – | 2837 | 3189 | inactive
Mbs (GeneID 49070) | SID104190345 | 1.96e5 | – | – | 8709 | 5379 | inactive
Gr21a (GeneID 33251) | SID104180158 | 1.05e5 | 79896 | – | 2688 | 1984 | inactive
CG9988 (GeneID 43388) | SID104196379 | 1.04e5 | 89458 | – | 3623 | 2596 | inactive
nclb (GeneID 36150) | SID104186801 | 65270 | 38553 | – | 1632 | 3303 | inactive
Ir56b (GeneID 37250) | SID104186335 | 99697 | 69179 | – | 2071 | 4056 | inactive
eff (GeneID 41785) | SID104196732 | 55988 | 53091 | – | 4533 | 2616 | active
CG15602 (GeneID 32533) | SID104199463 | 59625 | 1.22e5 | – | 2005 | 5805 | inactive
tup (GeneID 35147) | SID104183419 | 1.07e5 | 62340 | – | 4391 | 3260 | inactive
Atg13 (GeneID 40998) | SID104196020 | 81228 | 1.71e5 | – | 3120 | 4808 | inactive
CG16964 (GeneID 34605) | SID104182338 | 96512 | 63189 | – | 2137 | 4921 | inactive
CG5386 (GeneID 42613) | SID104195580 | 3.73e5 | 1.97e5 | – | 16568 | 4939 | inactive
eve (GeneID 36039) | SID104187406 | 96384 | 71926 | – | 2375 | 5755 | inactive
